Patent US12576097B2, “Anti-tumor effective component of Hedyotis diffusa, preparation method therefor and use thereof” (Guangdong New Ear Life Technology Co., Ltd., priority 2020, dated 2026)

Test system: human liver cancer Hep-G2 cells
Test: Inhibition rate on human liver cancer Hep-G2 cells (CCK-8)
Format: cell-based
Details: 3 mg/mL drug solutions, 24 h
Experimental: A cryopreservation tube containing liver cancer Hep-G2 cells was taken out from a liquid nitrogen tank, quickly placed in a water bath at 38-39° C., and continuously shaken to be fully thawed within 1 min. The cryopreservation tube was centrifuged at 800 r/min for 9 min, and sprayed with 75% alcohol on the outside thereof, and then put into a ultra-clean table. The resulting supernatant was sucked and discarded. 1 ml of DMEM complete medium was added, and a mixture of the cells and the DMEM complete medium was blown evenly, and then the cells were transferred to a 25 ml culture dish. 6-8 ml of DMEM complete medium was added, and a mixture of the cells and the DMEM complete medium was gently blown evenly, and put into a constant temperature incubator at 37° C. with 5% CO2.
The old medium in the item 2.1 was sucked out. 2 ml of PBS buffer solution was added, and the cells were washed by gently shaking the culture flask. The PBS buffer solution was sucked out to remove the loose, dead and senescent cells and their metabolic wastes, and the cells were washed for 2-3 times. 2 ml of trypsin was added, and the culture dish was gently shaken for 30 s. After the trypsin was sucked out, the culture dish was put into the incubator for full digestion for 3 min, and 2 ml of fresh DMEM complete culture was added. The cells were gently blown and dispersed into individual cells under a microscope, and then 6-8 ml of fresh DMEM complete medium was added and the cells were incubated in a constant temperature incubator.
2 mL trypsin was added into the cells cultured in the item 2.2 in the logarithmic growth phase and the cells were digested for 30 s. After the trypsin was sucked out, the culture dish was placed into the incubator for full digestion for 3 min, and 2 mL of fresh medium was added. […] 10 μL of the stained cell suspension was added to a cell counting plate, and the number of cells was counted by a fully automatic cell counter. […]
30 mL of DMEM complete medium was accurately measured, 30 μL of DMSO was added, and uniform mixing was conducted to prepare 0.1% DMSO medium. […]

Q: For “kaempferol-3-O-[2-O-(6-O-E-feruloyl)-β-D-glucopyranosyl]-β-D-galactopyranose”, which OD value (1st measurement) is on record?
A: 2.203 ± 0.027

Q: What about the OD value (2nd measurement) of the same substance?
A: 1.458 ± 0.011

Q: And the OD value (3rd measurement)?
A: 1.945 ± 0.037
